# Assay results: PubChem BioAssay AID493014 (National Center for Advancing Translational Sciences (NCATS), 2011)
# The list shows a part of the results. Further columns of the screen follow, without active or inactive calls. The list favours compounds with an active or inconclusive main result. Words in brackets tell the shape of the fitted curve; partial curves, single points and poor fits give uncertain potencies.
# Experiment: qHTS Assay to Find Inhibitors of Chronic Active B-Cell Receptor Signaling
# Conditions: ABC-DLBCL IkBa-CBG/CBR reporter, luminescence ratio (green luciferase fused to IkBa over red control in TMD8 lymphoma cells), 4 h
# Method in brief: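 TMD8 human ABC-DLBCL cells with doxycycline-inducible IκBα–green luciferase fusion and unfused red luciferase, in 0.5% FBS medium; compounds up to 46 uM, 4 h at 37C. Green/red luminescence ratio, filter-overlap corrected, fitted to concentration-response curves.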
# [1] = measured here: CBR red luminescence, cell number
# [2] = measured here: IkBa-CBG green luminescence
smiles,measurement,setting,value
Cc1c(C)[n+](=O)c(-c2ccc(F)cc2)c(C)n1[O-],AC50,[1],"15.8 µM [rising, partial curve]"
C=CCn1c(CCCOc2ccc(Cl)cc2Cl)n[nH]c1=S,AC50,[2],"20.6 µM [falling, single point]"
COc1ccc(CCC(C)NCc2cccc(Br)c2)cc1 (stereo not drawn),AC50,[1],"8.91 µM [rising, partial curve]"
CCOc1ccccc1NC(=O)N1CCc2ccccc2C1,AC50,[1],"2.51 µM [falling, partial curve, poor fit]"
CCOc1ccc(NC(=O)c2ccccc2O)cc1,AC50,[1],"8.2 µM [falling, partial curve]"
O=C(COC(=O)C1CCC(=O)N1)Nc1ccccc1Br (stereo not drawn),AC50,[1],"12.6 µM [rising, partial curve, poor fit]"
Cc1ccc(-c2cc(C(=O)N/N=C/c3c(C)nn(-c4ccccc4)c3C)[nH]n2)cc1,AC50,[1],"3.66 µM [rising, full curve]"
same,AC50,[2],"4.11 µM [falling, full curve]"
Cc1ccccc1NC(=O)CN1C(=O)N/C(=C\c2ccccc2OCc2ccc(C(=O)O)cc2)C1=O,AC50,[1],"1.12 µM [rising, partial curve, poor fit]"
COc1cccc(N2CCN(C(=O)c3ccc(CS(=O)c4ccc(C)cc4)o3)CC2)c1 (stereo not drawn),AC50,[1],"7.94 µM [rising, partial curve]"
same,AC50,[2],"14.1 µM [falling, partial curve]"
COc1ccc(-c2c(C)nn3c(N)c(-c4ccccc4)cnc23)cc1OC,AC50,[1],"12.6 µM [falling, single point]"
same,AC50,[2],"10 µM [falling, partial curve, poor fit]"
NS(=O)(=O)c1ccc(NC(=S)N2CCN(c3ccc(Cl)c(Cl)c3)CC2)cc1,AC50,[1],"29.1 µM [rising, single point]"
Cc1ccc(C(=O)Nc2sc3c(c2C(=O)O)CCC(C)C3)o1 (stereo not drawn),AC50,[1],"1.46 µM [falling, full curve]"
CC(=O)c1csc(-c2cccc(-c3nc4ccc(Cl)cn4c3NC3CCCCC3)c2)c1,AC50,[1],"1.46 µM [rising, partial curve, poor fit]"
Cc1ccc(C(=O)N2CCN(S(C)(=O)=O)C2)cc1,AC50,[1],"3.55 µM [rising, single point]"
O=C1CCCC2=C1C1c3ccccc3C(=O)N1c1ccc(C(=O)c3ccccc3)cc1N2 (stereo not drawn),AC50,[1],"29.1 µM [falling, single point]"
same,AC50,[2],"6.51 µM [rising, partial curve, poor fit]"
Cc1ccc(SC(=O)c2c([N+](=O)[O-])c(C)nn2C)cc1,AC50,[1],"6.31 µM [falling, single point]"
Oc1cccc(Nc2ncnc3ccccc23)c1,AC50,[1],"5.17 µM [falling, partial curve, poor fit]"
Cn1c(=O)[nH]c(=O)c2c1nc(N1CCCCC1)n2C/C=N/NC(=O)c1cc(Br)ccc1O,AC50,[1],"1.41 µM [falling, full curve]"
O=C(O)CCC(=O)Nc1ccc(S(=O)(=O)N2CCCC2)cc1,AC50,[1],"29.1 µM [rising, single point]"
CSc1ccccc1NC(=O)COc1nsnc1N1CCOCC1,AC50,[1],"10 µM [falling, partial curve]"
Cc1ccc(O)c(-c2cc(C(F)(F)C(F)F)[nH]n2)c1,AC50,[1],"4.47 µM [rising, partial curve, poor fit]"
Cn1c(-c2ccc(F)cc2)cnc1NCc1cc2c(cc1[N+](=O)[O-])OCO2,AC50,[1],"13 µM [falling, partial curve]"
CCN(CC)P(=O)(Nc1ccc([N+](=O)[O-])cc1)c1c(C)nn(CCC#N)c1NC(=O)c1ccc(Cl)cc1 (stereo not drawn),AC50,[1],"5.01 µM [rising, single point]"
S=C(Nc1ccccn1)NC1CCCCC1,AC50,[1],"35.5 µM [rising, single point]"
O=C(CCN1C(=O)c2ccccc2C1=O)NCc1cccc(Cl)c1,AC50,[1],"11.2 µM [rising, partial curve]"
COc1ccc(-c2oc3ccccc3c(=O)c2OCC(=O)O)cc1,AC50,[1],"12.6 µM [rising, partial curve, poor fit]"
O=C1/C(=C/c2cccnc2)CCc2c1[nH]c1ccccc21,AC50,[1],"15.8 µM [falling, single point]"
O=c1[nH]cnc2sc(-c3ccccc3)cc12,AC50,[1],"23.1 µM [falling, single point]"
COc1cccc(C(=O)Nc2ccc(Cl)c(C(F)(F)F)c2)c1,AC50,[1],"18.4 µM [falling, single point]"
COc1cccc(C2CC(=O)N3CN(c4cccc(Cl)c4C)CSC3=C2C#N)c1OC (stereo not drawn),AC50,[1],"25.9 µM [falling, single point]"
same,AC50,[2],"29.1 µM [rising, single point]"
CCCCS/C(N)=N/N=C/c1ccccc1O,AC50,[1],"0.58 µM [rising, partial curve]"
Cc1cc(C)n(-c2ccc(C(=O)Nc3ccc(C)c(S(=O)(=O)N(C)C)c3)cc2)n1,AC50,[1],"20.6 µM [falling, single point]"
Cc1nc(SCC(=O)Nc2cc(C)on2)c2c3c(sc2n1)CCCC3,AC50,[1],"6.51 µM [rising, single point]"
COC(=O)c1sc(NC(=O)/C=C/c2ccccc2Cl)nc1C,AC50,[1],"15.8 µM [falling, partial curve]"
CCOC(=O)c1sc(N2C(=O)C(O)=C(C(=O)c3ccco3)C2c2cccc([N+](=O)[O-])c2)nc1C (stereo not drawn),AC50,[1],"35.5 µM [falling, single point]"
O=C(Cc1ccc([N+](=O)[O-])cc1)N1CCCc2ccccc21,AC50,[1],"10 µM [rising, partial curve, poor fit]"
C/C(=N\OC(=O)c1ccccc1)c1cc(-c2ccc(Cl)cc2)no1,AC50,[1],"0.1 µM [rising, full curve]"
O=C(COC(=O)/C=C/c1cccc(C(F)(F)F)c1)NCc1ccc(F)cc1,AC50,[1],"0.00411 µM [falling, full curve, poor fit]"
Cc1csc2nc(CNC(=O)C3CC=CCC3C(=O)O)cn12 (stereo not drawn),AC50,[1],"0.651 µM [rising, partial curve, poor fit]"
CCOc1ccccc1NC(=O)CSc1nc2cc(O)ccc2c(=O)n1-c1ccc(OC)c(OC)c1,AC50,[1],"12.6 µM [falling, single point]"
CSc1cccc(NC(=O)c2ccc(CN3CCc4ccccc4C3)cc2)c1,AC50,[1],"0.178 µM [falling, full curve, poor fit]"
CN(C)c1ccc(-c2nc3ccccn3c2/N=C/c2ccc(Br)cc2)cc1,AC50,[1],"32.6 µM [falling, single point]"
COc1cc2c(cc1OC)-c1c(OC)c(OC)cc3ccnc(c13)C2=O,AC50,[1],"8.2 µM [rising, partial curve, poor fit]"
Oc1ccc(F)cc1-c1cc(-c2ccc3c(c2)OCCO3)n[nH]1,AC50,[1],"0.00461 µM [falling, full curve, poor fit]"
CCN(C(=O)Nc1ccccc1OC)c1c(N)n(Cc2ccccc2)c(=O)[nH]c1=O,AC50,[1],"20.6 µM [rising, single point]"
Cc1nnc(SCc2ccc(F)cc2)s1,AC50,[1],"11.2 µM [rising, single point]"
CCCCNC(=O)c1ccccc1NS(=O)(=O)c1ccc2c(c1)OCCO2,AC50,[1],"2.06 µM [rising, partial curve, poor fit]"
NC(=O)COC(=O)c1ccc(-c2ccc(O)cc2)cc1,AC50,[1],"35.5 µM [rising, single point]"
COc1ccc(N(CC(=O)Nc2ccccc2F)S(=O)(=O)c2ccc(OC)c(OC)c2)cc1,AC50,[1],"6.31 µM [rising, single point]"
CCCCCc1nnc(NC(=O)C2=COCCO2)s1,AC50,[1],"29.1 µM [falling, single point]"
CCN(CC)C(=O)CN(c1cccc(OC)c1)S(=O)(=O)c1ccc(C)cc1,AC50,[1],"0.0116 µM [falling, full curve, poor fit]"
CSc1nc(-c2ccc(Cl)cc2)nc(N)c1C#N,AC50,[1],"0.562 µM [falling, full curve, poor fit]"
O=C(Nc1ccccc1Cl)c1ccc2nccnc2c1,AC50,[1],"35.5 µM [falling, partial curve, poor fit]"
COC(CNC(=O)c1cccnc1)OC,AC50,[1],"3.55 µM [rising, full curve]"
O=C1c2ccccc2NC(c2ccc(-c3cccs3)o2)N1O (stereo not drawn),AC50,[1],"16.4 µM [falling, single point]"
NC(=O)Nc1ccc(C(=O)OCC(=O)Nc2ccc(Cl)cn2)cc1,AC50,[1],"12.6 µM [falling, partial curve, poor fit]"
CC(C)n1c(O)c(N=NC(=O)C2COc3ccccc3O2)c2ccccc21 (stereo not drawn),AC50,[1],"4.47 µM [rising, full curve, poor fit]"
CN(C)S(=O)(=O)c1cccc(NC(=O)c2cc3c(=O)n4ccccc4nc3s2)c1,AC50,[1],"29.1 µM [rising, single point]"
CN(CC(=O)OCC(=O)Nc1ccccc1)S(=O)(=O)c1ccc(Cl)cc1,AC50,[1],"1.3 µM [falling, full curve, poor fit]"
COC(=O)C1=C(C)N(Cc2ccccc2)C(=O)/C1=C\c1ccco1,AC50,[1],"11.2 µM [falling, single point]"
O=C(Cc1ccccc1)Nc1nc(-c2cccs2)cs1,AC50,[1],"7.94 µM [falling, partial curve, poor fit]"
COCCOC(=O)c1c(C)oc2ccc(OC(=O)COc3c(F)c(F)c(F)c(F)c3F)cc12,AC50,[1],"18.4 µM [rising, partial curve, poor fit]"
CCN(Cc1ccccc1)C(=O)CC1Oc2ccccc2NC1=O (stereo not drawn),AC50,[1],"0.206 µM [rising, full curve, poor fit]"

# A different layout for some results above.
smiles	measurement	setting	value
Cc1c(C)[n+](=O)c(-c2ccc(F)cc2)c(C)n1[O-]	AC50	[1]	15.8 µM [rising, partial curve]
O=C(COC(=O)C1CCC(=O)N1)Nc1ccccc1Br (stereo not drawn)	AC50	[1]	12.6 µM [rising, partial curve, poor fit]
Cc1ccc(-c2cc(C(=O)N/N=C/c3c(C)nn(-c4ccccc4)c3C)[nH]n2)cc1	AC50	[2]	4.11 µM [falling, full curve]
Cc1ccccc1NC(=O)CN1C(=O)N/C(=C\c2ccccc2OCc2ccc(C(=O)O)cc2)C1=O	AC50	[1]	1.12 µM [rising, partial curve, poor fit]
Cc1ccc(C(=O)N2CCN(S(C)(=O)=O)C2)cc1	AC50	[1]	3.55 µM [rising, single point]
O=C1CCCC2=C1C1c3ccccc3C(=O)N1c1ccc(C(=O)c3ccccc3)cc1N2 (stereo not drawn)	AC50	[1]	29.1 µM [falling, single point]
same	AC50	[2]	6.51 µM [rising, partial curve, poor fit]
Cc1ccc(SC(=O)c2c([N+](=O)[O-])c(C)nn2C)cc1	AC50	[1]	6.31 µM [falling, single point]
Oc1cccc(Nc2ncnc3ccccc23)c1	AC50	[1]	5.17 µM [falling, partial curve, poor fit]
Cn1c(=O)[nH]c(=O)c2c1nc(N1CCCCC1)n2C/C=N/NC(=O)c1cc(Br)ccc1O	AC50	[1]	1.41 µM [falling, full curve]
O=c1[nH]cnc2sc(-c3ccccc3)cc12	AC50	[1]	23.1 µM [falling, single point]
Cc1csc2nc(CNC(=O)C3CC=CCC3C(=O)O)cn12 (stereo not drawn)	AC50	[1]	0.651 µM [rising, partial curve, poor fit]
CN(C)c1ccc(-c2nc3ccccn3c2/N=C/c2ccc(Br)cc2)cc1	AC50	[1]	32.6 µM [falling, single point]
COc1cc2c(cc1OC)-c1c(OC)c(OC)cc3ccnc(c13)C2=O	AC50	[1]	8.2 µM [rising, partial curve, poor fit]
CCCCCc1nnc(NC(=O)C2=COCCO2)s1	AC50	[1]	29.1 µM [falling, single point]
O=C1c2ccccc2NC(c2ccc(-c3cccs3)o2)N1O (stereo not drawn)	AC50	[1]	16.4 µM [falling, single point]
CN(C)S(=O)(=O)c1cccc(NC(=O)c2cc3c(=O)n4ccccc4nc3s2)c1	AC50	[1]	29.1 µM [rising, single point]
